Results deposited as PubChem BioAssay AID1259254 (NCATS, 2017).

Purpose: 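Gene knock-downs that lead to re-replication, shown by excess G2 DNA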 (primary screen)
System: human HCT116 colorectal cancer cells
Reagents: single siRNA against human genes
Time to read-out: 3 days
Measured: 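Imaged Hoechst DNA stain sorts each cell into a cycle phase by DNA amount; per plate, G2 fraction set to 0% for non-targeting and 100% for GMNN siRNA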
Reading the numbers: G2 robust z-score and G2 cells, % of GMNN control: higher = more G2 cells, more excess DNA replication; raw share of cells in G2: higher = larger share of cells with G2 DNA content
Rule for the call: 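Active siRNAs have a G2 robust z of 5 or more median absolute deviations over the median, which in these data means about 38% or higher of GMNN control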
Shown is one part, drawn at random, of about 59,000 reagents. About 1,550 of all reagents (2.6%) count as active. 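G2 share is only a proxy for re-replication; each gene was hit by three separate siRNAs, and active genes were retested.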 Raw values are not corrected between plates. The numbers tell different reagents against one gene apart. Reagent sequences are not shown. Not stated in the record: the amount of reagent.

no.	gene knocked down	reagent no.	G2 robust z-score	G2 cells, % of GMNN control	raw share of cells in G2 (%)	Call
1	THSD7B (thrombospondin type 1 domain containing 7B)	1	-0.0771	2.42	5.45	inactive
2	THSD7B (thrombospondin type 1 domain containing 7B)	2	2.2	18.5	12.4	inactive
3	THSD7B (thrombospondin type 1 domain containing 7B)	3	0.606	7.23	4.35	inactive
4	LETR1 (lymphatic endothelial transcriptional regulator lncRNA 1)	1	-0.641	-1.54	3.25	inactive
5	LETR1 (lymphatic endothelial transcriptional regulator lncRNA 1)	2	-0.747	-2.29	2.61	inactive
6	LETR1 (lymphatic endothelial transcriptional regulator lncRNA 1)	3	-1.15	-5.11	2.67	inactive
7	AMACR (alpha-methylacyl-CoA racemase)	1	-0.616	-1.36	3.4	inactive
8	AMACR (alpha-methylacyl-CoA racemase)	2	-0.582	-1.12	3.78	inactive
9	AMACR (alpha-methylacyl-CoA racemase)	3	-0.879	-3.22	5.08	inactive
10	SOS2 (SOS Ras/Rho guanine nucleotide exchange factor 2)	1	-0.35	0.503	4.12	inactive
11	SOS2 (SOS Ras/Rho guanine nucleotide exchange factor 2)	2	-0.171	1.76	6.27	inactive
12	SOS2 (SOS Ras/Rho guanine nucleotide exchange factor 2)	3	1.87	16.1	10.1	inactive
13	SSTR3 (somatostatin receptor 3)	1	1.23	11.6	10	inactive
14	SSTR3 (somatostatin receptor 3)	2	-1.4	-6.89	2.11	inactive
15	SSTR3 (somatostatin receptor 3)	3	0.503	6.51	5.26	inactive
16	PAK1IP1 (PAK1 interacting protein 1)	1	1.97	16.8	8.5	inactive
17	PAK1IP1 (PAK1 interacting protein 1)	2	0.459	6.2	6.91	inactive
18	PAK1IP1 (PAK1 interacting protein 1)	3	-0.786	-2.56	3.08	inactive
19	ACTA2 (actin alpha 2, smooth muscle)	1	6.72	50.2	23	active
20	ACTA2 (actin alpha 2, smooth muscle)	2	-0.579	-1.11	4.34	inactive
21	ACTA2 (actin alpha 2, smooth muscle)	3	0.905	9.33	7.47	inactive
22	LINC03007 (long independently transcribed non-coding RNA 3007)	1	0.243	4.68	4.53	inactive
23	LINC03007 (long independently transcribed non-coding RNA 3007)	2	0.586	7.09	6.45	inactive
24	LINC03007 (long independently transcribed non-coding RNA 3007)	3	0.535	6.73	5.72	inactive
25	SCUBE3 (signal peptide, CUB domain and EGF like domain containing 3)	1	-0.716	-2.07	2.38	inactive
26	SCUBE3 (signal peptide, CUB domain and EGF like domain containing 3)	2	1.47	13.3	7.78	inactive
27	SCUBE3 (signal peptide, CUB domain and EGF like domain containing 3)	3	0.0356	3.22	4.65	inactive
28	ARMC10 (armadillo repeat containing 10)	1	1.06	10.4	7.58	inactive
29	ARMC10 (armadillo repeat containing 10)	2	-0.773	-2.47	2.72	inactive
30	ARMC10 (armadillo repeat containing 10)	3	-0.341	0.568	2.58	inactive
31	SH2B2 (SH2B adaptor protein 2)	1	-0.839	-2.93	3.83	inactive
32	SH2B2 (SH2B adaptor protein 2)	2	-0.296	0.882	4.5	inactive
33	SH2B2 (SH2B adaptor protein 2)	3	-0.827	-2.85	2.11	inactive
34	TTC39A (tetratricopeptide repeat domain 39A)	1	-0.285	0.962	5.36	inactive
35	TTC39A (tetratricopeptide repeat domain 39A)	2	-0.991	-4	2.48	inactive
36	TTC39A (tetratricopeptide repeat domain 39A)	3	0.94	9.58	6.76	inactive
37	MS4A15 (membrane spanning 4-domains A15)	1	4.26	33	15.5	inactive
38	MS4A15 (membrane spanning 4-domains A15)	2	2.77	22.5	10.8	inactive
39	MS4A15 (membrane spanning 4-domains A15)	3	-1.04	-4.33	1.81	inactive
40	KMT2D (lysine methyltransferase 2D)	1	0.0892	3.59	7.12	inactive
41	KMT2D (lysine methyltransferase 2D)	2	0.456	6.17	6.51	inactive
42	KMT2D (lysine methyltransferase 2D)	3	-1.05	-4.44	2.61	inactive
43	NRSN1 (neurensin 1)	1	0.362	5.52	5.68	inactive
44	NRSN1 (neurensin 1)	2	1.87	16.1	7.89	inactive
45	NRSN1 (neurensin 1)	3	-0.477	-0.391	2.93	inactive
46	FILIP1 (filamin A interacting protein 1)	1	1.79	15.6	9.79	inactive
47	FILIP1 (filamin A interacting protein 1)	2	-0.214	1.46	5.1	inactive
48	FILIP1 (filamin A interacting protein 1)	3	-0.859	-3.07	2.28	inactive
